The record followed here is the supplement of paper PMC10735217.

For the assay, the system named is HEK293A TEAD-LUC reporter. In words: TEAD-luciferase reporter activity (YAP activation), robust Z score vs plate; higher = stronger YAP/TEAD activation. The settings on record: 24 h.

The other results are listed elsewhere or left out. Single values are uncertain here, since repeats match poorly.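 The human kidney-derived cells carry a stably integrated construct of eight TEAD-binding elements driving luciferase, read by luminescence in a drug-repurposing library screen. A compound counts as a hit when its signal is more than five robust Z scores above the plate mean.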

Regarding `C[C@H]1O[C@@H](O[C@H]2[C@@H](O)C[C@H](O[C@H]3[C@@H](O)C[C@H](O[C@H]4CC[C@@]5(C)[C@H](CC[C@@H]6[C@@H]5C[C@@H](O)[C@]5(C)[C@@H](C7=CC(=O)OC7)CC[C@]65O)C4)O[C@@H]3C)O[C@@H]2C)C[C@H](O)[C@@H]1O` [Digoxin], the TEAD-luciferase reporter activity is active: 9.57 (compound concentration: 200 nM), inactive: -2.8 (compound concentration: 2 uM) and active: 17 (compound concentration: 10 uM).

Consider `COc1cc(NCCCCCNC(C)C)c2ncccc2c1`, for which the TEAD-luciferase reporter activity is, setting by setting: (compound concentration: 200 nM) inactive: -0.781; (compound concentration: 2 uM) inactive: 1.18; (compound concentration: 10 uM) inactive: 0.689.

In the case of `CCCOc1cc([C@]2(C)CNC(=O)O2)ccc1OC`, the TEAD-luciferase reporter activity is inactive: -1.56 (compound concentration: 200 nM), inactive: 2.81 (compound concentration: 2 uM) and inactive: -1.44 (compound concentration: 10 uM).

For the compound `O=C1C[O][Pt][O]1`, the TEAD-luciferase reporter activity is, setting by setting: (compound concentration: 200 nM) inactive: 0.00917; (compound concentration: 10 uM) inactive: -0.354.

With `C[n+]1cccc(C(=O)O[C@H]2CCC3C4CCc5cc(O)ccc5C4CC[C@]32C)c1` (stereo partly drawn), the TEAD-luciferase reporter activity (compound concentration: 200 nM) was inactive: -1.22, the TEAD-luciferase reporter activity (compound concentration: 2 uM) was inactive: 0.232 and the TEAD-luciferase reporter activity (compound concentration: 10 uM) was inactive: -0.176.

On to `CCCc1ccc(COc2ccc3c(c2)CCC(CN2CC(C(=O)O)C2)=C3C)c(OC)c1` [Ceralifimod], for which the TEAD-luciferase reporter activity is inactive: -1.18 (compound concentration: 200 nM), inactive: 0.867 (compound concentration: 2 uM) and inactive: 0.806 (compound concentration: 10 uM).

Consider `N#C[C@@H]1C[C@H](F)CN1C(=O)C(N)C(c1ccc(F)cc1)c1ccc(F)cc1` (stereo partly drawn), for which the TEAD-luciferase reporter activity was inactive: -0.693 (compound concentration: 200 nM), inactive: -0.623 (compound concentration: 2 uM) and inactive: 1.46 (compound concentration: 10 uM).

With `CC(C)(C)[C@H](c1nc(-c2cc(F)ccc2F)cn1Cc1ccccc1)N(CC[C@H](N)CF)C(=O)CO`, the TEAD-luciferase reporter activity runs as follows: (compound concentration: 200 nM) inactive: -2.12; (compound concentration: 2 uM) inactive: -0.3; (compound concentration: 10 uM) inactive: 2.74.

In the case of `CCN1CCCCC12Cc1ccccc1CN(C(=O)CCCN(C)C)C2` (stereo not drawn), the TEAD-luciferase reporter activity was inactive: -1.24 (compound concentration: 200 nM) and inactive: 4.47 (compound concentration: 10 uM).

As for `CCOC(=O)CN[C@@H](C(=O)N1CC[C@H]1C(=O)NCc1ccc(C(=N)NO)cc1)C1CCCCC1` [Ximelagatran], the TEAD-luciferase reporter activity was inactive: -1.66 (compound concentration: 200 nM), inactive: -1.32 (compound concentration: 2 uM) and inactive: 0.805 (compound concentration: 10 uM).

Take `Nc1ccn([C@@H]2O[C@H](CO)C(O)C2(F)F)c(=O)n1` (stereo partly drawn) [gemcitabine]: the TEAD-luciferase reporter activity is inactive: -0.895 (compound concentration: 200 nM), inactive: -1.74 (compound concentration: 2 uM) and inactive: -0.268 (compound concentration: 10 uM).

With `CC(=O)[C@H]1CC[C@H]2[C@@H]3C[C@H](C)C4=CC(=O)CC[C@]4(C)[C@H]3[C@@H](O)C[C@]12C`, the TEAD-luciferase reporter activity is, setting by setting: (compound concentration: 200 nM) inactive: -0.214; (compound concentration: 2 uM) inactive: 0.0406; (compound concentration: 10 uM) inactive: -1.12.

Consider `CCN(CC)CCNC(C(=O)OCCC(C)C)c1ccccc1` (stereo not drawn), for which the TEAD-luciferase reporter activity by setting is: (compound concentration: 200 nM) inactive: -1.1; (compound concentration: 2 uM) inactive: 1.8; (compound concentration: 10 uM) inactive: -1.83.

Regarding `CCCNC(C)(C)COC(=O)c1ccccc1`, the TEAD-luciferase reporter activity runs as follows: (compound concentration: 200 nM) inactive: -1.35; (compound concentration: 2 uM) inactive: 0.534; (compound concentration: 10 uM) inactive: 0.611.

Take `COC[C@@]1(O)CC[C@]2(C)C3CC[C@@]4(C)C(CC[C@@H]4C(=O)COc4ccc5c(ccc[n+]5[O-])c4)C3CC[C@H]2C1` (stereo partly drawn): the TEAD-luciferase reporter activity is inactive: -0.199 (compound concentration: 200 nM), inactive: 0.157 (compound concentration: 2 uM) and inactive: 1.13 (compound concentration: 10 uM).

Turning to `C#CCC(c1nc2cc(Cl)ccc2c(=O)n1Nc1ccccc1)N(CCCN)C(=O)c1cccc(Cl)c1F` (stereo not drawn), the TEAD-luciferase reporter activity by setting is: (compound concentration: 200 nM) inactive: -1.4; (compound concentration: 2 uM) inactive: -1.61; (compound concentration: 10 uM) inactive: 1.7.

Turning to `O=C1CCC(/C=C/c2ccncc2)=NN1`, the TEAD-luciferase reporter activity (compound concentration: 200 nM) is inactive: -0.0952, the TEAD-luciferase reporter activity (compound concentration: 2 uM) is inactive: -0.235 and the TEAD-luciferase reporter activity (compound concentration: 10 uM) is inactive: -1.59.

As for `CC[C@H](O)C(C)(O)[C@@H]1OC(=O)[C@H](C)[C@H](OC2CC(C)(OC)C(O)C(C)O2)[C@@H](C)[C@H](OC2OC(C)CC(N(C)C)C2O)[C@@]2(C)CC(C)=C(O2)[C@@H]1C` (stereo partly drawn), the TEAD-luciferase reporter activity is inactive: -0.345 (compound concentration: 200 nM), inactive: -1.25 (compound concentration: 2 uM) and inactive: -0.931 (compound concentration: 10 uM).

Consider `COc1cc(Nc2ncc(F)c(Nc3ccc4c(n3)N(COP(=O)(O)O)C(=O)C(C)(C)O4)n2)cc(OC)c1OC` [Fostamatinib disodium], for which the TEAD-luciferase reporter activity was inactive: -0.206 (compound concentration: 200 nM), inactive: -1.91 (compound concentration: 2 uM) and inactive: -1.49 (compound concentration: 10 uM).

As to `Cc1cc(/C=C/C#N)cc(C)c1Nc1ccnc(Nc2ccc(C#N)cc2)n1` [Rilpivirine], the TEAD-luciferase reporter activity is inactive: 0.137 (compound concentration: 200 nM), inactive: -2 (compound concentration: 2 uM) and inactive: 0.617 (compound concentration: 10 uM).

Consider `CCCn1c(=O)[nH]c(=O)c2[nH]cnc21` [enprofylline], for which the TEAD-luciferase reporter activity by setting is: (compound concentration: 200 nM) active: 5.18; (compound concentration: 2 uM) inactive: -0.739; (compound concentration: 10 uM) inactive: -1.19.

As for `C#C[C@H]1CC[C@@H](C#N)N1C(=O)CNC1(C)CCN(c2cc(C(=O)O)ccn2)CC1`, the TEAD-luciferase reporter activity is inactive: -0.493 (compound concentration: 200 nM), inactive: -0.427 (compound concentration: 2 uM) and inactive: 2.42 (compound concentration: 10 uM).

Consider `S=C(S)N1CCCC1`, for which the TEAD-luciferase reporter activity runs as follows: (compound concentration: 200 nM) inactive: -1.98; (compound concentration: 2 uM) inactive: 0.533; (compound concentration: 10 uM) inactive: -3.6.

`Cc1c(F)cccc1NC(=O)Nc1ccc(Cl)c(S(=O)(=O)[C@H]2CCCNC2)c1O` [Danirixin]: the TEAD-luciferase reporter activity (compound concentration: 200 nM) is inactive: -1.93, the TEAD-luciferase reporter activity (compound concentration: 2 uM) is inactive: -0.632 and the TEAD-luciferase reporter activity (compound concentration: 10 uM) is inactive: 2.63.

Regarding `CNCc1ccc(C)c(NC(=O)c2ccc(Nc3nc(-c4ccccc4)c4ccccc4n3)cc2)c1`, the TEAD-luciferase reporter activity is inactive: -0.422 (compound concentration: 200 nM), inactive: -0.443 (compound concentration: 2 uM) and inactive: 0.611 (compound concentration: 10 uM).
